# Source: the supplement of paper PMC12067093, “Discovery and optimisation of a covalent ligand for TRIM25 and its application to targeted protein ubiquitination” (Chemical Science, 2025)
# Chains of the proteins cited; added tags and fusions are not shown. Lines headed by an entry give the natural chain unless they say otherwise; changes in a name come on top.
# UniProt Q12882: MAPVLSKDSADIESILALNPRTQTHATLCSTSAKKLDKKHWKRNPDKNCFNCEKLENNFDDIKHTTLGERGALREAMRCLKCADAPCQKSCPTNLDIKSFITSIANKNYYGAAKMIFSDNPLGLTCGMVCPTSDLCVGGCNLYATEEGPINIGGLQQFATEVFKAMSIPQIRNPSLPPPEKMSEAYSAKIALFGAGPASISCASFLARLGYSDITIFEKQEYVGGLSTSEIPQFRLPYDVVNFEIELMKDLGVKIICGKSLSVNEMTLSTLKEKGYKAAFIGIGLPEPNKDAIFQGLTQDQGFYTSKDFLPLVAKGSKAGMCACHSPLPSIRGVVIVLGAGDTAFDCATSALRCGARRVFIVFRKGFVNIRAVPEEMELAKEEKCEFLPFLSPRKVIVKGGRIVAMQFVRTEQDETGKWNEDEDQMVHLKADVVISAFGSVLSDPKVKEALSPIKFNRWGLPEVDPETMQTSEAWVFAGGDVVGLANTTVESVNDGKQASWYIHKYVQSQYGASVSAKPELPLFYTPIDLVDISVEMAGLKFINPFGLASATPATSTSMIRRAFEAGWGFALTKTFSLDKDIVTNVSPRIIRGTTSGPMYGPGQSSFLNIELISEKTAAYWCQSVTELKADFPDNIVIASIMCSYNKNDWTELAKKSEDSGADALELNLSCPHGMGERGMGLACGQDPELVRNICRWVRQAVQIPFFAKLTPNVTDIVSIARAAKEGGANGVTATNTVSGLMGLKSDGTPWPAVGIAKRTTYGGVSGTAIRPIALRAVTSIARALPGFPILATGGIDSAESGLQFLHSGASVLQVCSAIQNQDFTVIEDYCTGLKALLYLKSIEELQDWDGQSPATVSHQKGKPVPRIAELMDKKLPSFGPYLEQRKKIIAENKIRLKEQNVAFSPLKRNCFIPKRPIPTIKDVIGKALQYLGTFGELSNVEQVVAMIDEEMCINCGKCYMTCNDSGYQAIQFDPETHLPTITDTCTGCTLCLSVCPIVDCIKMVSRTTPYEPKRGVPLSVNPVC
# UniProt P51808: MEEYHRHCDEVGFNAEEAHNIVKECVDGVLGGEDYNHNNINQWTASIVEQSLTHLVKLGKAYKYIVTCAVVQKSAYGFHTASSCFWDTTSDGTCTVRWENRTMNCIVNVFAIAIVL
# UniProt P26358: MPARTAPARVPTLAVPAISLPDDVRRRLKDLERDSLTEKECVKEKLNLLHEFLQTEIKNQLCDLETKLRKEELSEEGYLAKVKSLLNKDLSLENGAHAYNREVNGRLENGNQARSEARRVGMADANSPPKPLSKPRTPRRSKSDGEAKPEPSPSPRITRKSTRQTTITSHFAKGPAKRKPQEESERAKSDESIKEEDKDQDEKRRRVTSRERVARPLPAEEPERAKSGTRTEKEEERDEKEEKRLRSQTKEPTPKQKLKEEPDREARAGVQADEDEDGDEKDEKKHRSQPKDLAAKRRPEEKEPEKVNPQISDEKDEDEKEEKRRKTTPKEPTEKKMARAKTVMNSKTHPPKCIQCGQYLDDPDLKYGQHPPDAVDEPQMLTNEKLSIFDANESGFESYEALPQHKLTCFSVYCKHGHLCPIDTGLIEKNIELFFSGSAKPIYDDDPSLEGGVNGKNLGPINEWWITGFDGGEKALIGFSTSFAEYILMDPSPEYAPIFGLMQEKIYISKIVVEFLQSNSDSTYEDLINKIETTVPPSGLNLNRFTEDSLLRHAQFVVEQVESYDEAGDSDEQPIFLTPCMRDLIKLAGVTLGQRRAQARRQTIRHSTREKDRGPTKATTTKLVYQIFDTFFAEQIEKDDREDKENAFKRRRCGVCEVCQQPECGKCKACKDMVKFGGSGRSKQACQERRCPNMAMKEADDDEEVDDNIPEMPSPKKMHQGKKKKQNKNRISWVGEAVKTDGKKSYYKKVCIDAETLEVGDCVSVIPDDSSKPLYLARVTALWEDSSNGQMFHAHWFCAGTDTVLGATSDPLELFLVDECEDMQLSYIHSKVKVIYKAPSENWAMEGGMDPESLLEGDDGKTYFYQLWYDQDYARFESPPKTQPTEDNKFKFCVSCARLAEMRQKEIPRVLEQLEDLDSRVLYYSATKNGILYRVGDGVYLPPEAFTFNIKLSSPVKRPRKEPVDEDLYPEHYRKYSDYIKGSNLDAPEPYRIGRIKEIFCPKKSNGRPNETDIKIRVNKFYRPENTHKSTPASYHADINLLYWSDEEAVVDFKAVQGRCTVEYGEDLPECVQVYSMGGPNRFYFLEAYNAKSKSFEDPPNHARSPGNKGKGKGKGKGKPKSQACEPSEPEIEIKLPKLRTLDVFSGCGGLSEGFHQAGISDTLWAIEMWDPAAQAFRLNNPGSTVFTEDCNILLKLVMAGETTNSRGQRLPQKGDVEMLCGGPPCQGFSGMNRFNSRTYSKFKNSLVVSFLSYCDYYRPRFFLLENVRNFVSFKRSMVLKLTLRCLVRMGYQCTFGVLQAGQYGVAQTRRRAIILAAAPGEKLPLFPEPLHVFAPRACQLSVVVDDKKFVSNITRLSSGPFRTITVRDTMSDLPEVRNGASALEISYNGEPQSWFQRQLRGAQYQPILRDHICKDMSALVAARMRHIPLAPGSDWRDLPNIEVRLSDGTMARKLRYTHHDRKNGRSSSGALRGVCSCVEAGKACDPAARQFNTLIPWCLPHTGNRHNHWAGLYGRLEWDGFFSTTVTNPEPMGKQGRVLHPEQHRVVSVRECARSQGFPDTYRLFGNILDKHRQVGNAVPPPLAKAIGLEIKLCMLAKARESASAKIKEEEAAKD
# UniProt Q8TEA8: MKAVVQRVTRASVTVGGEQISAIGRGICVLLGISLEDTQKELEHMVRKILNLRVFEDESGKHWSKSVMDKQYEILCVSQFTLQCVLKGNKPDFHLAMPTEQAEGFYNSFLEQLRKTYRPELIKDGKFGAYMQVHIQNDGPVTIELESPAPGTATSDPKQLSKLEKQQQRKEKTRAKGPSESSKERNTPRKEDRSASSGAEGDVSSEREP
# UniProt Q9Y3R5: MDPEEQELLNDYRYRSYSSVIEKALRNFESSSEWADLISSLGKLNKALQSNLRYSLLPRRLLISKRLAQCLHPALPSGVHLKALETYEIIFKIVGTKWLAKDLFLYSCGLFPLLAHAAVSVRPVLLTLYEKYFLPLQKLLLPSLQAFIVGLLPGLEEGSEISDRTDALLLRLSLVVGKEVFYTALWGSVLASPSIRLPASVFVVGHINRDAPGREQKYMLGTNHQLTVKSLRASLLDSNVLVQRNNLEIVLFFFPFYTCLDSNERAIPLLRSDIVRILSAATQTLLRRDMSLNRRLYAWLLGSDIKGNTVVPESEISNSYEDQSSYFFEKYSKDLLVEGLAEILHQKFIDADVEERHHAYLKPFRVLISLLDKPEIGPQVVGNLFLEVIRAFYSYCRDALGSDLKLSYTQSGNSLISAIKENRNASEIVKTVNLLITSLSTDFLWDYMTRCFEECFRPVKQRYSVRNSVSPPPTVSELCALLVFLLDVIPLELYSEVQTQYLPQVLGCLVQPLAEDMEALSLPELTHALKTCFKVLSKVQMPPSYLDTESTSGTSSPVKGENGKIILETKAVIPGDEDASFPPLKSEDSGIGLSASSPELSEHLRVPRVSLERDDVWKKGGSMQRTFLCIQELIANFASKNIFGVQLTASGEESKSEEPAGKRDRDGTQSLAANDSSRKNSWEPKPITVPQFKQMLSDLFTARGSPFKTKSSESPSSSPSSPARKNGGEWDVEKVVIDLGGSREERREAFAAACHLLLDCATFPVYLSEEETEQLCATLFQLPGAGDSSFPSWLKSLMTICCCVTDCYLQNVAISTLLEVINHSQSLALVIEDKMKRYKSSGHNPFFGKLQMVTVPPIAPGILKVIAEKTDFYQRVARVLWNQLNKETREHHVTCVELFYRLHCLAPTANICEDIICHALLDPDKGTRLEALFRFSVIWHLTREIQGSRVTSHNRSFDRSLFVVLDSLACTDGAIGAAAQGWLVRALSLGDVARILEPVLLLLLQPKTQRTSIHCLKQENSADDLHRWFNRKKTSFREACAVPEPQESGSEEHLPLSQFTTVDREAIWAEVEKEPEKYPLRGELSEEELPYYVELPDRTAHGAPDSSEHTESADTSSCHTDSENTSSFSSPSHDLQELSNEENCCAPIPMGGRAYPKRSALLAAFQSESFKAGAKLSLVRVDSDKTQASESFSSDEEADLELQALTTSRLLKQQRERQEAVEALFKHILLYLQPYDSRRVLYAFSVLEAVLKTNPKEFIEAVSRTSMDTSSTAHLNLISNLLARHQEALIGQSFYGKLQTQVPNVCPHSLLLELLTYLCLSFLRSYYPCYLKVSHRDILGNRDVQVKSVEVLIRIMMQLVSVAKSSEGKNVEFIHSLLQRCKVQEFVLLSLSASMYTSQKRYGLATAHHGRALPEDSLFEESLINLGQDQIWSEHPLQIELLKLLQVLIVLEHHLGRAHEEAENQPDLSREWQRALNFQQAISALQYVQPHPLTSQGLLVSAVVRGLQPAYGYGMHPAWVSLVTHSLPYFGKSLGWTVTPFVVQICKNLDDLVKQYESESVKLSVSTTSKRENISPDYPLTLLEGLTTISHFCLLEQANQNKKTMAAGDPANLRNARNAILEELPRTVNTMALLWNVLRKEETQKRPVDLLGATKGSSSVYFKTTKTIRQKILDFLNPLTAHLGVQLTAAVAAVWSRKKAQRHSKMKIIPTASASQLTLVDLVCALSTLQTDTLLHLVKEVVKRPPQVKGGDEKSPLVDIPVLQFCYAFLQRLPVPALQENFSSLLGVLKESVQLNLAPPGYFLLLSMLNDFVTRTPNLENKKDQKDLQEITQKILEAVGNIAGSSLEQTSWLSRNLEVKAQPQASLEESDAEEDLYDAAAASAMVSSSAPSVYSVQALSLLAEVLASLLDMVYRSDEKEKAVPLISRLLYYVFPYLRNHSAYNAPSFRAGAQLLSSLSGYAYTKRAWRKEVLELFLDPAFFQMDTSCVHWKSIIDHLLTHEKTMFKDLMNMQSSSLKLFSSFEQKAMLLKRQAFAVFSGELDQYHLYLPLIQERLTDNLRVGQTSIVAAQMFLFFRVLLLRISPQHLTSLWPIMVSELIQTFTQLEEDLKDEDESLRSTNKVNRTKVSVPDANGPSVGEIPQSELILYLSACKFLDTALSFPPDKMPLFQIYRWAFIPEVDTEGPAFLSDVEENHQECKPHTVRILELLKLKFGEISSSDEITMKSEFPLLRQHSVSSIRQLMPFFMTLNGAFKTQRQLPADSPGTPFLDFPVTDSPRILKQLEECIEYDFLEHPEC
# UniProt Q96G46: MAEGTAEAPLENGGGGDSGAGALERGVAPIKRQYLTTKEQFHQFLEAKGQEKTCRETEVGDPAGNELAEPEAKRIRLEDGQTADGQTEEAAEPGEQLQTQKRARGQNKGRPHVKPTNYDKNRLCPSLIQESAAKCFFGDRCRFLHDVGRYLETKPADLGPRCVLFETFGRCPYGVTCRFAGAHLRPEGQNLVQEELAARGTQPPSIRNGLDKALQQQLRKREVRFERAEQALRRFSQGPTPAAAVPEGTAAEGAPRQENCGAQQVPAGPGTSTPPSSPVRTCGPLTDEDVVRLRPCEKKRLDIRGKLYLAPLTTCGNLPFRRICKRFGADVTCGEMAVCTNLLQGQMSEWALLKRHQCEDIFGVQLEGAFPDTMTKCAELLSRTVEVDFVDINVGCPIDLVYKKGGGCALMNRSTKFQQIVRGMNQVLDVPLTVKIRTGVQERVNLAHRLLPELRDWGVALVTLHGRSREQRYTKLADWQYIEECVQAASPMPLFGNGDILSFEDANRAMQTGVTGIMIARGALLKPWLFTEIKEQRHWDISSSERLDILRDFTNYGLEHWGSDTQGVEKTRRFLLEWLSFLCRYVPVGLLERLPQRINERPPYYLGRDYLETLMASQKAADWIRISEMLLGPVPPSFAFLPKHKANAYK
# UniProt Q9H2P9: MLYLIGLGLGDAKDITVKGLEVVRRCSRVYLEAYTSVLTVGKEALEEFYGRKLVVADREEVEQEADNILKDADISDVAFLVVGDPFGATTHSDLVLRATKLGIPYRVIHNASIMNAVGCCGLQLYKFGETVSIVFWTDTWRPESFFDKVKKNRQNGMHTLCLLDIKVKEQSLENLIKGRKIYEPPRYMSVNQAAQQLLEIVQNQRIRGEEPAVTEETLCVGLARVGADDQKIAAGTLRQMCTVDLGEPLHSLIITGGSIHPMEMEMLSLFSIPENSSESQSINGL
# UniProt Q92785, whole entry, looked up: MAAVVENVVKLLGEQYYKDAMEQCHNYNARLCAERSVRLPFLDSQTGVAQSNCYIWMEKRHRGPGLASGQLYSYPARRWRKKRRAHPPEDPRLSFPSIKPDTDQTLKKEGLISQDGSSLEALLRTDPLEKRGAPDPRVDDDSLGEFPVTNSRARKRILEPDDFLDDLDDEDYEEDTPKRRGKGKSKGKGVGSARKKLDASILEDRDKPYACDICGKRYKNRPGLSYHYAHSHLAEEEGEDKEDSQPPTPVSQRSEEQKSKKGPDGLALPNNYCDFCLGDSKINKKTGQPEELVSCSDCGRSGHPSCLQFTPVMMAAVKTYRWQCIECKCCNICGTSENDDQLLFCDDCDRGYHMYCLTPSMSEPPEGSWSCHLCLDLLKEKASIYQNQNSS
# Some of the results follow.
# Compound: CC1Cc2ccccc2N1C(=O)C1CCCN(C1)C(=O)CCl (mixture of isomers) [TRIM25 ligand 11 (diastereomer mixture)]
# Assay: probe-labelled cysteine peptide fold change vs DMSO (competition) (log2 fold change); higher = less target engagement (more negative = stronger competition)
# Details: 10 µM; THP-1; incubation time: 4 h
# 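Note: competitive chemoproteomic profiling in live THP-1 cells with an iodoacetamide desthiobiotin (IA-DTB) probe, comparing probe-labelled peptide intensities in compound-treated cells against DMSO-treated controls.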
row,Target,probe-labelled cysteine peptide fold change
1,DPYD_Q12882_671_KSEDSGADALELNLSCPHGMGER (UniProt Q12882),0.208
2,DTX3L_Q8TDB6_175_VCGDFQDIER (UniProt Q8TDB6),-0.0857
3,DOCK5_Q9H7D0_1532_ISNCVQQHAWDR (UniProt Q9H7D0),-0.07
4,DYNC1H1_Q14204_4438_QDLADVVQVCEGKK (UniProt Q14204),0.164
5,DYNC1H1_Q14204_1888_CYLTMTQALEAR (UniProt Q14204),0.0467
6,DYNLT3_P51808_8_HCDEVGFNAEEAHNIVK (UniProt P51808),-0.112
7,DPYSL2_Q16555_248_AITIANQTNCPLYITK (UniProt Q16555),-0.0281
8,DTWD2_Q8NBA8_143_FSEERDPELSTVCR (UniProt Q8NBA8),0.148
9,DUT_P33316_166_TDIQIALPSGCYGR (UniProt P33316),0.0433
10,DNMT1_P26358_686_QACQER (UniProt P26358),-0.414
11,DUSP23_Q9BVJ7_67_IPDFCPPAPDQIDR (UniProt Q9BVJ7),-0.0758
12,DTX3L_Q8TDB6_585_HEFCAPCINK (UniProt Q8TDB6),0.0682
13,DOCK10_Q96BY6_2108_QFADACGQALDVNER (UniProt Q96BY6),0.112
14,DTD1_Q8TEA8_84_QYEILCVSQFTLQCVLK (UniProt Q8TEA8),0.378
15,DOCK5_Q9H7D0_316_KHTCGLR (UniProt Q9H7D0),0.153
16,DOP1B_Q9Y3R5_70_LAQCLHPALPSGVHLK (UniProt Q9Y3R5),0.262
17,DYNC1H1_Q14204_4438_QDLADVVQVCEGK (UniProt Q14204),0.0826
18,DYNLL1_P63167_24_NADMSEEMQQDSVECATQALEK (UniProt P63167),-0.178

row,Target,probe-labelled cysteine peptide fold change
1,DUS3L_Q96G46_315_LYLAPLTTCGNLPFR (UniProt Q96G46),0.136
2,DSTN_P60981_39_AVIFCLSADK (UniProt P60981),-0.0558
3,DYNC1H1_Q14204_4121_LHSLQPHACFR (UniProt Q14204),0.0169
4,DOK3_Q7L591_295_CHSGEGLFAFSTPCAPDLCR (UniProt Q7L591),-0.0286
5,DPH5_Q9H2P9_120_VIHNASIMNAVGCCGLQLYK (UniProt Q9H2P9),0.276
6,DPP9_Q86TI2_550_LTTPGFSHSCSMSQNFDMFVSHYSSVSTPPCVHVYK (UniProt Q86TI2),0.432
7,DUS1L_Q6P1R4_395_CDQCGNPK (UniProt Q6P1R4),-0.0487
8,DSCR3_O14972_137_TCEFIVHSAPQK (UniProt O14972),-0.0619
9,EAPP_Q56P03_259+262_AETDVEEIYHPVMCTECSTEVAVYDKDEVFHFFNVLASHS (UniProt Q56P03),0.271
10,DPF2_Q92785_24_DAMEQCHNYNAR (UniProt Q92785),-0.119
11,DPF2_Q92785_306_SGHPSCLQFTPVMMAAVK (UniProt Q92785),0.0756
12,DTX3L_Q8TDB6_446_QVDLSVHAYASFIDAFQHASCQLMR (UniProt Q8TDB6),0.406
13,DNMT1_P26358_1339_ACQLSVVVDDKK (UniProt P26358),-0.0891
14,DOCK6_Q96HP0_510_IDISPAPENPHFCLSPELLHIK (UniProt Q96HP0),-0.0429
15,DPF2_Q92785_53_LPFLDSQTGVAQSNCYIWMEK (UniProt Q92785),-0.0577
16,DSTN_P60981_135_HECQANGPEDLNR (UniProt P60981),-0.0264
17,DPH5_Q9H2P9_219_IRGEEPAVTEETLCVGLAR (UniProt Q9H2P9),0.00924

# Same assay, conditions: 50 µM; THP-1; incubation time: 4 h
row,Target,probe-labelled cysteine peptide fold change
1,DPYD_Q12882_671_KSEDSGADALELNLSCPHGMGER (UniProt Q12882),0.125
2,DTX3L_Q8TDB6_175_VCGDFQDIER (UniProt Q8TDB6),0.0555
3,DOCK5_Q9H7D0_1532_ISNCVQQHAWDR (UniProt Q9H7D0),-0.0262
4,DYNC1H1_Q14204_4438_QDLADVVQVCEGKK (UniProt Q14204),0.147
5,DYNC1H1_Q14204_1888_CYLTMTQALEAR (UniProt Q14204),-0.173
6,DYNLT3_P51808_8_HCDEVGFNAEEAHNIVK (UniProt P51808),-0.158
7,DPYSL2_Q16555_248_AITIANQTNCPLYITK (UniProt Q16555),0.083
8,DTWD2_Q8NBA8_143_FSEERDPELSTVCR (UniProt Q8NBA8),0.0336
9,DUT_P33316_166_TDIQIALPSGCYGR (UniProt P33316),0.0518
10,DNMT1_P26358_686_QACQER (UniProt P26358),0.0901
11,DUSP23_Q9BVJ7_67_IPDFCPPAPDQIDR (UniProt Q9BVJ7),-0.026
12,DTX3L_Q8TDB6_585_HEFCAPCINK (UniProt Q8TDB6),0.0322
13,DOCK10_Q96BY6_2108_QFADACGQALDVNER (UniProt Q96BY6),0.0382
14,DTD1_Q8TEA8_84_QYEILCVSQFTLQCVLK (UniProt Q8TEA8),0.323
15,DOCK5_Q9H7D0_316_KHTCGLR (UniProt Q9H7D0),0.0645
16,DOP1B_Q9Y3R5_70_LAQCLHPALPSGVHLK (UniProt Q9Y3R5),0.136
17,DYNC1H1_Q14204_4438_QDLADVVQVCEGK (UniProt Q14204),0.0819
18,DYNLL1_P63167_24_NADMSEEMQQDSVECATQALEK (UniProt P63167),-0.22

row,Target,probe-labelled cysteine peptide fold change
1,DUS3L_Q96G46_315_LYLAPLTTCGNLPFR (UniProt Q96G46),0.0337
2,DSTN_P60981_39_AVIFCLSADK (UniProt P60981),-0.00534
3,DYNC1H1_Q14204_4121_LHSLQPHACFR (UniProt Q14204),0.278
4,DOK3_Q7L591_295_CHSGEGLFAFSTPCAPDLCR (UniProt Q7L591),0.0448
5,DPH5_Q9H2P9_120_VIHNASIMNAVGCCGLQLYK (UniProt Q9H2P9),0.259
6,DPP9_Q86TI2_550_LTTPGFSHSCSMSQNFDMFVSHYSSVSTPPCVHVYK (UniProt Q86TI2),0.156
7,DUS1L_Q6P1R4_395_CDQCGNPK (UniProt Q6P1R4),-0.0131
8,DSCR3_O14972_137_TCEFIVHSAPQK (UniProt O14972),0.099
9,EAPP_Q56P03_259+262_AETDVEEIYHPVMCTECSTEVAVYDKDEVFHFFNVLASHS (UniProt Q56P03),-0.0211
10,DPF2_Q92785_24_DAMEQCHNYNAR (UniProt Q92785),-0.357
11,DPF2_Q92785_306_SGHPSCLQFTPVMMAAVK (UniProt Q92785),-0.322
12,DTX3L_Q8TDB6_446_QVDLSVHAYASFIDAFQHASCQLMR (UniProt Q8TDB6),0.224
13,DNMT1_P26358_1339_ACQLSVVVDDKK (UniProt P26358),0.0706
14,DOCK6_Q96HP0_510_IDISPAPENPHFCLSPELLHIK (UniProt Q96HP0),0.0224
15,DPF2_Q92785_53_LPFLDSQTGVAQSNCYIWMEK (UniProt Q92785),-0.19
16,DSTN_P60981_135_HECQANGPEDLNR (UniProt P60981),0.0817
17,DPH5_Q9H2P9_219_IRGEEPAVTEETLCVGLAR (UniProt Q9H2P9),-0.127
